No constants are given. Whether binding was seen depends on the method and setting. Some binding calls cover weakened binding; strength is not graded here. For part of these data: Tags and fused reporters may be left off the sequences shown.
Experiments:
IL-13Rα1 monomer = molecular target: T1, IL-13Rα1 monomer (UniProt P78552); assay: BIACORE; IL-13Rα1 monomer immobilized
T1 sequence (looked up): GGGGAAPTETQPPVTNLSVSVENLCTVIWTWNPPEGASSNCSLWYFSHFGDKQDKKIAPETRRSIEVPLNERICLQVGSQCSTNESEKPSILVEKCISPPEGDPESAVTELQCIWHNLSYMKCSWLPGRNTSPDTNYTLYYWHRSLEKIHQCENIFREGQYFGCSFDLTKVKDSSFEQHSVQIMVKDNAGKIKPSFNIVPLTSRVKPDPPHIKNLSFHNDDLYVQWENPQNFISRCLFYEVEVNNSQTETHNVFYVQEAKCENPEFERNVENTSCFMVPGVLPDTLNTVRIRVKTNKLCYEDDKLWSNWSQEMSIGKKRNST

Amino acid sequences for entries named in this document (tags omitted). A change or cut given only in a name is not applied to a line headed by its entry.
UniProt P35225: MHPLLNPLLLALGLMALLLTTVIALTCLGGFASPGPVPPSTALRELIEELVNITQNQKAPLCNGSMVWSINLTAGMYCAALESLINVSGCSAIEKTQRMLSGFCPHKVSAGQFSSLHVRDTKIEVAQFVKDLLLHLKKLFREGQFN

IL-13Rα1 = molecular target: T2, IL-13Rα1 (UniProt P78552); assay: BIACORE; complex formed in solution
T2 sequence (looked up): T1 sequence (looked up)

IL-13Rα1-Fc = molecular target: T3, IL-13Rα1-Fc (UniProt P78552); assay: BIACORE; IL-13Rα1-Fc immobilized
T3 sequence (looked up): T1 sequence (looked up)

Measured: binding

recombinant human IL-13 (from UniProt P35225 34-146) (ligand)
binds: all assays above
